# Measurements taken from article PMC6373471.
# Sequences of proteins named here, by UniProt entry; tags and fusion partners are left off.
# UniProt Q9SQI2: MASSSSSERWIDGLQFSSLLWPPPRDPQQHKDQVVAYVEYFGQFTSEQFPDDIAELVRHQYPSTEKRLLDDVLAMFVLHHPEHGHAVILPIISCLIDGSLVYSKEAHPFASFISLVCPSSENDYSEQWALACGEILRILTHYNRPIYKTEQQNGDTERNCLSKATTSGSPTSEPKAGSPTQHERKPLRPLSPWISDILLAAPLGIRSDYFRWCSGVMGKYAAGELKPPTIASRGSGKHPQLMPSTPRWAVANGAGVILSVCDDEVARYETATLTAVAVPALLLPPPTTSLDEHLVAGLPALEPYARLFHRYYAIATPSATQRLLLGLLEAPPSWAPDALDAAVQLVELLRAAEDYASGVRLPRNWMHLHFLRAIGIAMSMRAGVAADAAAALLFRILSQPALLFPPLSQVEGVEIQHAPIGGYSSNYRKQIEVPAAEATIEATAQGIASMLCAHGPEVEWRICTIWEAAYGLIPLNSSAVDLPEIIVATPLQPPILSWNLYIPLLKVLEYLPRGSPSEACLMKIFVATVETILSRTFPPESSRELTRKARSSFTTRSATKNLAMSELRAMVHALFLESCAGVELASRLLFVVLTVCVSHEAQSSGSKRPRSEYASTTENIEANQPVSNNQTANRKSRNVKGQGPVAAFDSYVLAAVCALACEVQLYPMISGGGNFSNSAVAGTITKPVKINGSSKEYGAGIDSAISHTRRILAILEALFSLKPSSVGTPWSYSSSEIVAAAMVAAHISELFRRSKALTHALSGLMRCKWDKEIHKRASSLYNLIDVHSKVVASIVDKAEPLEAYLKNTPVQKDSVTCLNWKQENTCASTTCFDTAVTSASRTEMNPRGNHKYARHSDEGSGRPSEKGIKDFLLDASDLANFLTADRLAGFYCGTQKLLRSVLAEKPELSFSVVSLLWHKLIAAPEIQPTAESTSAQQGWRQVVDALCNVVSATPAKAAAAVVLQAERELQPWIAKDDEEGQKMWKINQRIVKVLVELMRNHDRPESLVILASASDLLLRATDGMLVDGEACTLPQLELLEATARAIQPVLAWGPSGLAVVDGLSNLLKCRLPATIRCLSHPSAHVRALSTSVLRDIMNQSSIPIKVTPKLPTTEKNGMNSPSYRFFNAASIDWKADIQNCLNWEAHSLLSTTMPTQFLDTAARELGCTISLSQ
# How the values were obtained:
# [1] = target: GIGANTEA with C-terminal 3xFLAG-6xHis tag (GI‐3F6H) (Arabidopsis thaliana) (UniProt Q9SQI2); test: affinity purification with mass spectrometry; time series study: tandem affinity purification (FLAG and His tags) of GI-3F6H from rosettes grown in short days, six time points plus ZT31; on-bead digest, label-free quantitation; WT plants as control
# [2] = target: GIGANTEA with C-terminal 3xFLAG-6xHis tag (GI‐3F6H) (Arabidopsis thaliana) (UniProt Q9SQI2); test: affinity purification with mass spectrometry; qualitative study: tandem affinity purification (FLAG and His tags) of GI-3F6H from plants grown in long days and harvested at ZT13 on day 14; RIPA or SII buffer; on-bead digest, peptide counts; WT plants as control
# [3] = target: GIGANTEA with C-terminal 3xFLAG-6xHis tag (GI‐3F6H) (Arabidopsis thaliana) (UniProt Q9SQI2); test: affinity purification with mass spectrometry; preliminary study: tandem affinity purification of GI-3F6H, silver-stained gel, LC-MS of excised bands; plants harvested at ZT8
binding [1],binding [2],binding [3],Binder
binds,–,–,"phosphofructokinase family protein (AT1G20950) (protein, UniProt Q9SYP2 1-614) MDSDFGIPRELSPLQQLRSQYKPELPPCLQGTTVRVELGDGTTVAEAADSHTMARAFPHTLGQPLAHFLRETAQVPDAHIITELPSVRVGIVFCGRQAPGGHNVIWGLFEALKVHNAKSTLLGFLGGSEGLFAQKTLEITDDILQTYKNQGGYDLLGRTKDQIKTTEQVNAALKACTDLKLDGLVIIGGVISNTDAAHLAEFFAAAKCSTKVVGVPVTTNGDLKNQFVEANVGFDTICKVNSQLISNACTDALSAEKYYYFIRLMGRKHSHVALECTLQSHPNMVILGEEVAASKLTIFDIAKQICDAVQARAVEDKNHGVILIPEGLIVSIPEVYALLKEIHGLLRQGVSADKISTQLSPWSSALFEFLPPFIKKQLLLHPESDDSAQLSQIETEKLLAYLVETEMNKRLKEGTYKGKKFNAICHFFGYQARGSLPSKFDCDYAYVLGHICYHILAAGLNGYMATVTNLKSPVNKWKCGATPITAMMTVKHWSQDASYTLTSIGRPAIHPAMVDLKGKAYDLLRQNAQKFLMEDLYRNPGPLQYDGPGADAKAVSLCVEDQDYMGRIKKLQEYLDQVRTIVKPGCSQDVLKAALSVMASVTDVLTTISSNGGQ"
binds,–,–,"FIB2 (protein, UniProt Q94AH9 1-320) MRPPLTGSGGGFSGGRGRGGYSGGRGDGGFSGGRGGGGRGGGRGFSDRGGRGRGRGPPRGGARGGRGPAGRGGMKGGSKVIVEPHRHAGVFIAKGKEDALVTKNLVPGEAVYNEKRISVQNEDGTKTEYRVWNPFRSKLAAAILGGVDNIWIKPGAKVLYLGAASGTTVSHVSDLVGPEGCVYAVEFSHRSGRDLVNMAKKRTNVIPIIEDARHPAKYRMLVGMVDVIFSDVAQPDQARILALNASYFLKSGGHFVISIKANCIDSTVPAEAVFQTEVKKLQQEQFKPAEQVTLEPFERDHACVVGGYRMPKKPKAATAA"
–,binds,–,"GSTU7 (protein, UniProt Q9ZW24 1-227) MAERSNSEEVKLLGMWASPFSRRIEIALTLKGVSYEFLEQDITNKSSLLLQLNPVHKMIPVLVHNGKPISESLVILEYIDETWRDNPILPQDPYERTMARFWSKFVDEQIYVTAMKVVGKTGKERDAVVEATRDLLMFLEKELVGKDFLGGKSLGFVDIVATLVAFWLMRTEEIVGVKVVPVEKFPEIHRWVKNLLGNDVIKKCIPPEDEHLKYIRARMEKLNIKSA"
binds,–,binds,"CAT3 (protein, UniProt Q42547 1-492) MDPYKYRPSSAYNAPFYTTNGGAPVSNNISSLTIGERGPVLLEDYHLIEKVANFTRERIPERVVHARGISAKGFFEVTHDISNLTCADFLRAPGVQTPVIVRFSTVVHERASPETMRDIRGFAVKFYTREGNFDLVGNNTPVFFIRDGIQFPDVVHALKPNPKTNIQEYWRILDYMSHLPESLLTWCWMFDDVGIPQDYRHMEGFGVHTYTLIAKSGKVLFVKFHWKPTCGIKNLTDEEAKVVGGANHSHATKDLHDAIASGNYPEWKLFIQTMDPADEDKFDFDPLDVTKIWPEDILPLQPVGRLVLNRTIDNFFNETEQLAFNPGLVVPGIYYSDDKLLQCRIFAYGDTQRHRLGPNYLQLPVNAPKCAHHNNHHEGFMNFMHRDEEINYYPSKFDPVRCAEKVPTPTNSYTGIRTKCVIKKENNFKQAGDRYRSWAPDRQDRFVKRWVEILSEPRLTHEIRGIWISYWSQADRSLGQKLASRLNVRPSI"
binds,–,binds,"KASI (protein, UniProt P52410 47-473) ASTVSAPKRETDPKKRVVITGMGLVSVFGNDVDAYYEKLLSGESGISLIDRFDASKFPTRFGGQIRGFSSEGYIDGKNERRLDDCLKYCIVAGKKALESANLGGDKLNTIDKRKAGVLVGTGMGGLTVFSEGVQNLIEKGHRRISPFFIPYAITNMGSALLAIDLGLMGPNYSISTACATSNYCFYAAANHIRRGEADMMIAGGTEAAIIPIGLGGFVACRALSQRNDDPQTASRPWDKARDGFVMGEGAGVLVMESLEHAMKRGAPIVAEYLGGAVNCDAHHMTDPRADGLGVSSCIERCLEDAGVSPEEVNYINAHATSTLAGDLAEINAIKKVFKSTSGIKINATKSMIGHCLGAAGGLEAIATVKAINTGWLHPSINQFNPEQAVDFDTVPNEKKQHEVDVAISNSFGFGGHNSVVAFSAFKP"
–,binds,–,"AT1G80870 (protein, UniProt Q9SAH3 1-692) MPSRPNPTRPKLFHNRTKTLFLILTISSSLVIFFAILYFIYHLWISLLNRSRTIPFDVAAASPLKLQLFTYKELKLATNDFDESNVIGKGGSGTVFRGITRDGKLFAVKRLDNLSIQTETEFQNELQILGGLKSSFLVTLLGYCVEKNHRFLIYEYMPNKSLQELLFNEDGDSCLNWERRFGIILDVAKALEFMHFGCDPPVIHGDIKPSNVLLDSEFRAKISDFGLSRVKVEGGYGVDLFSQELSGNFGGESTPQTAIGTPTHHEVDFALALQASSSSKNSRTSRNIKEMSLNSMSLAMDGETKGKEVSNDVVLSCEDHEFDQGKEMNLLSPNSVLDLGKGSKQWGRDWWWKQEGSGELCSKDYVREWIGSQIDTANPDWDDDKKVITTPELGVSTRTIDKAEHRDESGLNESRFDTLEEKFAKEEISERKNKRSKNKKKKHRNMEEWWKEEEHQEEMNNKKKIGVLRIKFKNHLKFPHFRYCFRQKGENSVHDREGEAAGEFSFRRGWRRKSNSSSKKKKKNNNGSMGSEMWSGDLFSRELSSTTSMRGTLCYIAPEYGGGCCYLMEKGDIYSFGVLILVIVSGRRPLHVLASPMKLEKANLVSWCRQLAQSGNVLELVDEKLKDGYNKEEAGLCINLALACLQKAPELRPDVSEVVRILRGEMDISSTAFEFSPSPPGKVYGSRSKRRS"
–,binds,–,"RTM3 (protein, UniProt D5K228 1-301) MGKQFDKKITWTIKNFASLLSDLIYSDHFVVGGCKWHLRAYPKGYNNANSLSLFLGVAVPTSLPSGWRRHTKFRLTLVNQLSDKLSQSKLNELEQWFDEKTTNWGLSSMCPLNEIHAKDSGFLLNGELKIVVEIKVLETIGKLDVTEETSTITETVDVNGFQLLPSQAKSVSRMFAKHPELASDLRPKNPNLRTGYMSLLLSLIETLSQLPQQMSKDDLLDAYDALGSMRDAGFKLDWLEKKLYEVSEKKENEEASETGLQEMEEELKDMKQKCLEMEALVEKEKAKVSTAKAPISFDDIV"
binds,–,–,"RPN10 (protein, UniProt P55034 1-386) MVLEATMICIDNSEWMRNGDYSPSRLQAQTEAVNLLCGAKTQSNPENTVGILTMAGKGVRVLTTPTSDLGKILACMHGLDVGGEINLTAAIQIAQLALKHRQNKNQRQRIIVFAGSPIKYEKKALEIVGKRLKKNSVSLDIVNFGEDDDEEKPQKLEALLTAVNNNDGSHIVHVPSGANALSDVLLSTPVFTGDEGASGYVSAAAAAAAAGGDFDFGVDPNIDPELALALRVSMEEERARQEAAAKKAADEAGQKDKDGDTASASQETVARTTDKNAEPMDEDSALLDQAIAMSVGDVNMSEAADEDQDLALALQMSMSGEESSEATGAGNNLLGNQAFISSVLSSLPGVDPNDPAVKELLASLPDESKRTEEEESSSKKGEDEKK"
binds,–,–,"EMB2719 (protein, UniProt Q9LNU4 1-488) MTQDVEMKDNNTPSQSIISSSTSTMQNLKEIAALIDTGSYTKEVRRIARAVRLTIGLRQKLTGSVLSSFLDFALVPGSEAHSRLSSFVPKGDEHDMEVDTASSATQAAPSKHLPAELEIYCYFIVLLFLIDQKKYNEAKACSSASIARLKNVNRRTIDVIASRLYFYYSLSYEQTGDLAEIRGTLLALHHSATLRHDELGQETLLNLLLRNYLHYNLYDQAEKLRSKAPRFEAHSNQQFCRYLFYLGKIRTIQLEYTDAKESLLQAARKAPIAALGFRIQCNKWAILVRLLLGEIPERSIFTQKGMEKALRPYFELTNAVRIGDLELFRTVQEKFLDTFAQDRTHNLIVRLRHNVIRTGLRNISISYSRISLPDVAKKLRLNSENPVADAESIVAKAIRDGAIDATIDHKNGCMVSKETGDIYSTNEPQTAFNSRIAFCLNMHNEAVRALRFPPNTHKEKESDEKRRERKQQEEELAKHMAEEDDDDF"

# No constants are given. Whether binding was seen depends on the method and setting. Binding seen in cells or lysates may run through a third protein. A yes stands for co-enrichment or nearness to the bait. Other partners may have been found. For some assays here: Where a sequence is shown, tags or fusion partners need not be part of it.
